Laboratory results taken from article PMC9601220.
These are yes or no findings as the source states them, for the method shown. Binding seen in cells or lysates may run through a third protein. Here binding means that the protein was enriched with, or labelled near, the bait; the list need not be complete.

B1: Nup138 (protein, UniProt A0A509AFD3 1-1237)
chain: MNNNGGNANNPNMWGMPNNNLGNNSFFGTNMNSQNGLNENNNNSLNNQTNMTGNNMFFGASVNNQNNNIFENNMNSQNNVGKSDNSIFGTPSNDLNKSNNTSLFGSLSSNTSVNNNTTNAFNANLFNAAKKDVYPGFTRSLLGNSPNNSSNIFKQSTLGSSIALGSQLNEDRGSESGGLFSKEQLEAAKQIFANSSSGNLSSFNNKTNNNKLTFSGGFSSSSSAFSKNNINPFQSMAMQATNQNDKSSLMNNNMNKLFFGDTNNNNINGGGKINPFGMPTVNNLTSPNKLNEIGPGGFSQAIKSFNPNTNSLFSSQTNTGSTASTSFNNNDSSQKSLFSNFGGGFNSFAKTNTNDIFKKNTTENATNNNNTNTSFSFLPSFNGSKNNDNSFSLNSFNATNNEKSSGSLFSFNNNNTNTASPDFSLFSNNNINKTTTPDNSINSSINKDAENKAIEKSNQNIGESKDSGITSVVSESFKANDASGTDKSIFSKETEAEKDKEKAGDKNEQNDNDKEKDETKETNVTLEIKKDENDSTKNHDEKLIDHKSESKENQNNENEKDDKNDDKKYETSDNAKDNKDGTNNDKMSLFGKSLTFNSSFFKTSTANLTDKKSNLESSSSLNNDTENKKEKTGFFFGNDDKNENTNTSTESKWDFSKFGNNNLFNKEKESFSFSFKETSTTDKKNESTNLKDNKKEEDTKPSVSTESKDKNKEATATPKKSIFNFGIKSNFLNQSSKDSKDDNINESNKEKDNEKPTKGAETDETDADGTKDHNTTGVYSKLDSNDVGDKKKIWKLSFTKKKDQTSTDAQKELKENELKNNNLLNKGPSLQPSDITLGKGSLFGSFTKDNEKKNEDTKNTKSDHFSNINSFGKNNTSISFNQSSLFGKPDEKGNTLFSSSNNTFQFFNSSQNDKKKTEFQTKTQNIPEIKNNQNADDEDVNNVSNLINFISLEDRKKNVYINNNAQCDDENHEKTYISSNLKSNNNNETSHRSQTANFQLKETKGTLRMDNNDDYADFNDIDFINGQQNLEINMEHQRQLENDRKSVENNIKTNECFLKKNLDQEMAVDVINNLSSFVKNKINFMNYCSNEILDIYNKVSHYEKMYALISEDQIKIEKKQESLEKRLRLIQSEQCDMLSLLNELDNENSLTFLKVLNQKNLNKDDSINNKNLYLDIDKFEKLADKIENLEELIDSIHNTSKHDIVNDLVNKCYTNEINCEQIEKQLNGYSHELRNMK
B2: Nup176 (protein, UniProt A0A509AYN3 1-1469)
chain: MNDFSGEYDFMQRIHKIEGHNNNDYGINKDNLKGGDIIKGKDDVLLEKEKYEKDFYLKSKYDKYNNTLNGFEKDDKFSYLKRLKKENELKKRESSSKKSNINELVKINEIVYYIHANKKNVYEYITNQTDLENNYYQIEERPNNLSRNIIKNNEEYIYLNDNAYYKLKINRDEKDGREEKEDEHGIESMNLKYSLDGNKSTIIENIIESDNILIHILHVLLSFKNCVKGIFLFLSKIFHFNFLDYNNIKNYSLTNYFDQNVKEYMKYLKKHEDSRIINHDFLLRRKYITPHFIYNSVDCNYNTNDNGIVILSSILPFIHSFDYDYKLKETRNREQDLEYVLNGEKKKYFGKTGIFEYLKKIKNMFINKLNRSIGNDNNNNNENGDGMGNDEGAWGNDNNEYSEFLKKYENCINEKGELIQDILFAGKAQMIFINFKQLENNFNNIIGNIEIKNEKIHVSNLILGYEKREHIKYTDILISNILKNIKKKYPDIAINDENPKQFIYDDNEFSDKLMGENNNTYGGNHINNMNSNDESNISLTEHIDNNIYKRELYKLSDLKEYVYSAPSHLMRDQKNNCEYVTCVSFDNNSNNCNLINNFVLGYNTGKIEYIYGKIVYNNISHCDLLIDYYSNKNKKFSYELCKRIYLNGSVIKIGFAPNVFFCLILTSKTLYICNFFYFSIYEIPNVCYNSRFVNFLWINNNSYCIFNDNGYIYLYEKNSKSDGLNSFSLVKCFFIDQNIYYNSICEYHLYSHSIYLYTGEIEKRRQKKNVTHFFKKKKIRMHKRYSDYFYKYDCNFIIIDLNSYMGNNCENNKSSDMLVRGLLKDNVTDVEGNMKQIKILEMLIENGANLEEEDANFENMLNINIKDFNNYISTIKDANTKLYMNDSGDERKDMIDYNKENDKFSIKNIFVNYIQDVKRHLYNLKNENIVNVLLPRYYSSGDDYSHKNFLNVRFFTIEKLDNKHLIALDTETDYVYIYKIRKNVHLDYNSIEALKNNPYQTNRNPLHMLYSTYMKKEPILKDEWKIYNEYIYVNTKKLKKYIKYNLLYIIKNHKKIFFPLHVYVINTKYNENEYLLFIKWATIKNSFVYSSYSSLNKVSKMNDYFNNEDEKILKVLENPKNIFLYNINDENRNVGGRMGYPYMPNNDILRSLSGKNKYYDNDYMSDNGNNYISYNRSGNKPNEYRENFSNKMKNFTNRISHEDFMSKTPIKNPERNFFTSGVGNNMGINETNPILYKRRGRFTENDIYNEYYMNQNNKDGNYSNYLNENKKLNESDKKWSYLKKINIFSKKDEDLINDNYGNHRSNYNNMDPKNLQYKNSHMYNLKNDNIFNEMKNSNLYSSPNDIKFNRLHDNQDGPKIPNGDNNMNEYYYMNNTNKYKTSNINNNYDSYVLKNDLYNFRNNININENNNNANNNYSYGNTDFYRAPNDTYYRGNQEFNANVYNAGYGSDSNHIHHESPYRSRFRNYS

Biological target: Nup434::TurboID-HA (P. berghei)
Test: proximity labelling; TurboID fused to the C-terminus of the bait at its endogenous locus in P. berghei; schizonts after overnight culture, no added biotin (mouse serum and RPMI levels); lysis in 8M urea with 1 mM DTT, biotinylated proteins on magnetic streptavidin beads, LC-MS/MS; 2 biological replicates, proteins of the wild-type control excluded

Binder | binding
B1 | binds
B2 | binds
